Our source for the binding values is paper PMC12320503.

In the experiment the target is T1, Flag-SIRT4 (Sirtuin 4), stably overexpressed in AML12 hepatocytes (UniProt Q8R216).
T1 sequence: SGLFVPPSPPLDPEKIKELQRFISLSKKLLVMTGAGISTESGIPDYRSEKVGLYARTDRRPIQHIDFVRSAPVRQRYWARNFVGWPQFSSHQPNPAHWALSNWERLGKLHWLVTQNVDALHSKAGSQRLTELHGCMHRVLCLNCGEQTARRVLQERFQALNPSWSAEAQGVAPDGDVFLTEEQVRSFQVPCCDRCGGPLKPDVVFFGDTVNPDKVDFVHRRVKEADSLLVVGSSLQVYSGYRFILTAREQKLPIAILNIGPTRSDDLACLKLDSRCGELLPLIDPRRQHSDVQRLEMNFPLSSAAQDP
The experiment can be described thus: affinity purification with mass spectrometry; lysate of SIRT4-overexpressing (Flag-SIRT4) AML12 cells after H/R; anti-flag antibody with protein A/G agarose beads overnight at 4°C; LC-MS/MS, Flag cells as control.

No constants are given. Whether binding was seen depends on the method and setting. Binding seen in cells or lysates may run through a third protein. A yes stands for co-enrichment or nearness to the bait. Other partners may have been found. Tags and fused reporters may be left off the sequences shown.

B1: peroxiredoxin 3 (PRDX3), endogenous in AML12 hepatocytes (protein, UniProt P20108 63-257)
chain: TPAVTQHAPYFKGTAVVNGEFKELSLDDFKGKYLVLFFYPLDFTFVCPTEIVAFSDKANEFHDVNCEVVAVSVDSHFSHLAWINTPRKNGGLGHMNITLLSDITKQISRDYGVLLESAGIALRGLFIIDPNGVVKHLSVNDLPVGRSVEETLRLVKAFQFVETHGEVCPANWTPESPTIKPSPTASKEYFEKVHQ
Regarding B1, the binding entry is given as “binds”.
